Out of some 330,000 compounds screened, about 7,700 (2.3%) were called active. The shares of active, inactive and inconclusive entries below differ from those in the screen. The call rests on the fitted dose curve; in most records, active means well fitted inhibition curve with a large enough effect; inconclusive means small, poorly fitted or top-dose-only effect, or effect the other way; inactive means flat fitted curve, though single readings scatter. Potencies beside an inconclusive call are fits to weak or partial responses and may not hold up.
assay: qHTS screen for small molecules that inhibit ELG1-dependent DNA repair in human embryonic kidney (HEK293T) cells expressing luciferase-tagged ELG1; conditions: HEK293T ELG1-luciferase reporter, luminescence, 16 h, DNA damage induced by 5-fluorouridine; series mostly up to 46.1 µM; further: nearly all actives have a fitted effect of over 55% in size
Outline: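 DMSO vehicle served as the neutral condition. Each well held 2,000 cells given 5-fluorouridine plus compound; after 16 hr at 37 °C/5% CO2, ONE-Glo was added and luciferase measured 30 min later.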
Potency means the concentration at half of the fitted maximal effect.

SMILES | Potency
CCc1ccc(OCC(=O)NNCC(=O)Nc2ccc(OC)cc2)cc1 | inactive
Cc1cccc2nc(-c3ccccc3)nc(N3CCC(O)(c4ccc(Cl)cc4)CC3)c12 | inconclusive: 6.51 µM [inhibitor, partial curve]
S=c1nc(-c2ccco2)[nH][nH]1 | inactive
Fc1ccc(CN2CCN(C(c3ccccc3)c3ccccc3)CC2)cc1 | inactive
O=C(Nc1cnccn1)c1csc2ccccc12 | inconclusive: 14.6 µM [activator, partial curve]
Cc1cc(C)n(-c2ccccc2[N+](=O)[O-])n1 | inconclusive: 29.1 µM [activator, single point]
O=C(N/N=C/c1ccc(Cl)cc1)c1cc(-c2cccnc2)nc2ccccc12 | inconclusive: 29.1 µM [inhibitor, single point]
COC(=O)c1ccc(C(=O)OC)c(NC(=O)COC(=O)C23CC4CC(CC(O)(C4)C2)C3)c1 | inconclusive: 23.1 µM [inhibitor, partial curve, poor fit]
CC(=O)Nc1ccc(S(=O)(=O)N2CCC(C(=O)Nc3nccs3)CC2)cc1 | inactive
NC(=O)c1cc([N+](=O)[O-])ccc1NCc1cccc(N)c1 | inconclusive: 31.6 µM [inhibitor, single point]
COc1ccc(CCNC(=O)c2c[nH]c3ccc(F)cc3c2=O)cc1OC | inconclusive: 18.3 µM [inhibitor, single point]
CN(C(=O)CCOc1ccccc1)c1c(N)n(Cc2ccccc2)c(=O)[nH]c1=O | inactive
CCOC(=O)C1(CCOc2ccccc2)CCN(Cc2cccs2)CC1 | inconclusive: 20.6 µM [inhibitor, partial curve, poor fit]
COc1ccccc1-c1nc(C#N)c(N2CCN(C(c3ccccc3)c3ccccc3)CC2)o1 | inactive
COCc1nnc(NC(=O)c2ccc(S(=O)(=O)N3CCCCCC3)cc2)o1 | inconclusive: 5.62 µM [inhibitor, single point]
Cc1ncoc1C(=O)N1CCCC(CCC(=O)NCc2ccc(F)c(F)c2)C1 (stereo not drawn) | inconclusive: 25.9 µM [activator, partial curve, poor fit]
O=C(Nc1cccc(S(=O)(=O)NC2=NCCC2)c1)c1cn(-c2ccccc2)nc1-c1ccc(F)cc1 | inconclusive: 23.1 µM [inhibitor, single point]
Cn1c(CC(=O)Nc2ccccc2)cc2ccccc21 | inconclusive: 7.3 µM [activator, partial curve, poor fit]
COc1ccccc1/C=C/C=N/n1c(-c2ccccn2)n[nH]c1=S | inconclusive: 16.4 µM [activator, partial curve]
CCCN(C(=O)Cn1ncc2c([nH]c3ccccc32)c1=O)c1ccccc1C | inconclusive: 20.6 µM [activator, single point]
COc1ccc2c(c1)OC[C@H]1[C@H]2N2C(=O)c3cc(OC)c(OC)cc3NC(=O)[C@@]2(C)[C@H]1c1ccccc1 | inconclusive: 3.16 µM [inhibitor, single point]
Cc1ccc(SCCN2CCC(NC(=O)OCc3ccccc3)CCC2=O)cc1 (stereo not drawn) | inconclusive: 23.1 µM [inhibitor, single point]
N#Cc1cccc(NC(=O)CSc2ccccc2)c1 | inactive

In another format: results already given
CN(C(=O)CCOc1ccccc1)c1c(N)n(Cc2ccccc2)c(=O)[nH]c1=O
  Potency: inactive
CCOC(=O)C1(CCOc2ccccc2)CCN(Cc2cccs2)CC1
  Potency: inconclusive: 20.6 µM [inhibitor, partial curve, poor fit]
COc1ccccc1-c1nc(C#N)c(N2CCN(C(c3ccccc3)c3ccccc3)CC2)o1
  Potency: inactive

(list continues)

SMILES | Potency
COc1ccc(NC(=O)Cc2ccc(Cl)cc2)cc1S(=O)(=O)N1CCCCC1 | inconclusive: 29.1 µM [inhibitor, single point]
CC(CN1CCCC1)OC(=O)c1ccc(Cl)cc1 (stereo not drawn) | inactive
Cc1ccc(NC(=O)c2ccc(OCC3CCCO3)cc2)cc1 (stereo not drawn) | inconclusive: 3.66 µM [activator, full curve]
Cc1cc(C)n(CC(=O)NNC(=O)c2ccc(S(C)(=O)=O)cc2)n1 | inactive
Cc1nnc(SCc2ccc(C(=O)c3ccc(Cl)cc3)o2)n1-c1ccccc1 | inconclusive: 29.1 µM [inhibitor, partial curve, poor fit]
Cc1ccc(OC(=O)c2cccc([N+](=O)[O-])c2)c(-n2nc3ccccc3n2)c1 | inconclusive: 14.6 µM [activator, partial curve]
CCN(C(=O)COC(=O)CNC(=O)c1cccc(C)c1)c1c(N)n(Cc2ccccc2)c(=O)[nH]c1=O | inconclusive: 4.11 µM [activator, partial curve, poor fit]
COc1cccc(-c2nnc(SCc3ccccn3)n2C)c1 | inconclusive: 25.9 µM [activator, single point]
O=C(NCc1ccco1)c1nn2c(C(F)(F)F)cc(-c3cccs3)nc2c1Cl | inactive
COc1ccc(CSc2nnc(N)s2)cc1F | inconclusive: 18.4 µM [activator, partial curve]
CC(=O)Nc1ccc(/C=N/Nc2nc3ccccc3s2)cc1 | inconclusive: 1.03 µM [activator, full curve]
Cc1ccc(C)c(NC(=O)c2ccccc2O)c1 | inconclusive: 11.6 µM [activator, partial curve, poor fit]
CC(C)COC(=O)N1CCN(S(=O)(=O)c2ccc3c(c2)CCC3)CC1 | inactive
Cc1c(CN2CCC(n3nccc3NC(=O)c3cccc(F)c3)CC2)cnn1C | inconclusive: 0.92 µM [activator, full curve]
CCOC(=O)C1(CCCc2ccccc2)CCN(C(=O)C(C)n2cncn2)CC1 (stereo not drawn) | inconclusive: 29.1 µM [inhibitor, single point]
COc1ccc(NC(=O)CC(c2ccc(F)cc2)c2ccc(OC(C)C)cc2)cc1 (stereo not drawn) | inactive
CCO/C(C)=N/n1c2nc3ccccc3nc2c2c(=O)n(C3CCCC3)c(C)nc21 | inconclusive: 14.6 µM [inhibitor, partial curve]
CCN(CCCNC(=O)CN1C(=O)COc2ccc(S(=O)(=O)N3CCC(C)CC3)cc21)Cc1ccccc1 | inconclusive: 29.1 µM [activator, single point]
CCOc1ccccc1NC(=S)NC(=O)C1CC1 | inactive
C[C@H](NC(=O)c1[nH]cnc1C(=O)Nc1ccccc1)C(=O)OC(C)(C)C | inconclusive: 18.3 µM [inhibitor, single point]
CCc1ccc(-c2cc3c(=O)n(CC(=O)NCCCN4CCN(Cc5ccccc5)CC4)nc(C)n3n2)cc1 | inconclusive: 29.1 µM [activator, partial curve, poor fit]
COc1ccc(CNC(=O)C2CCN(c3nc(-c4ccccc4)nc4c3CCC4)CC2)cc1 | inconclusive: 25.9 µM [inhibitor, partial curve, poor fit]
CC(=O)N1CC(C)Sc2ccc(S(=O)(=O)NCCc3ccc(C)cc3)cc21 (stereo not drawn) | inconclusive: 4.11 µM [inhibitor, single point]

SMILES | Potency
O=C(Nc1cccnc1Cl)c1cc(-c2ccccc2O)on1 | inconclusive: 10.3 µM [activator, partial curve]
COc1ccc(/C=C(/NC(=O)c2ccco2)C(=O)N2CCCCCC2)cc1OC | inactive
O=c1ccc(-c2ccc(S(=O)(=O)Nc3ccc(F)cc3)o2)n[nH]1 | inactive
COc1ccc(C(=O)NCCCNC(=O)c2cccnc2)cc1OC | inactive
CCS(=O)(=O)c1ccc(O)c(NC(=O)NC2CCCCC2)c1 | inactive
CCCn1c(C)cc(C(=O)CSc2nc3nc(C)cc(C)n3n2)c1C | inconclusive: 2.59 µM [inhibitor, partial curve, poor fit]
N#CCSc1nc2[nH]ncc2c(=O)n1-c1ccccc1Br | inconclusive: 0.082 µM [activator, full curve, poor fit]
O=C(N/N=C/c1ccc([N+](=O)[O-])o1)c1ccc(NS(=O)(=O)c2cccs2)cc1 | active: 20.6 µM
COC(=O)c1ccc(-n2cc(-c3ccc(OC)cc3)[nH]c2=S)cc1 | inactive
COc1ccc(-c2[nH]c(-c3ccc(C)cc3)nc2SCC(=O)NC2CCCC2)cc1 | inconclusive: 23.1 µM [inhibitor, single point]
N#CC(=C1CCCC1)c1nc(-c2ccccc2O)cs1 | inconclusive: 5.8 µM [activator, full curve]
CCc1ccccc1N(CC)C(=O)c1cn(CC)c(=O)c2cc(OC)c(OC)cc12 | inconclusive: 25.9 µM [inhibitor, single point]
COc1ccccc1C(=O)N/N=C/c1c[nH]c2ccccc12 | inactive
CCOC(=O)c1cc(-c2ccccc2C)nn1CC1CC(c2ccc(OC)cc2)=NO1 (stereo not drawn) | inconclusive: 25.9 µM [inhibitor, single point]
C=CCC[C@H](Cc1ccc(F)cc1)C(=O)OC[C@@H](C)NC(=O)[C@H](CC=C)CC(=O)NCCO | inactive
COC(=O)[C@@H](NC(=O)c1ccc2c(c1)S(=O)(=O)c1ccccc1C2=O)C(C)C | inconclusive: 29.1 µM [inhibitor, single point]
O=C(C1CCN(C2CCN(C/C(Cl)=C/c3ccccc3)CC2)CC1)N1CCOCC1 | inactive
O=c1[nH]c(Nc2ccc(F)cc2)cc2ccccc12 | inconclusive: 23.1 µM [activator, single point]
COC(=O)C1=C(C)NC(=O)C1(NC(=O)CN1CCCC1=O)C(F)(F)F (stereo not drawn) | inconclusive: 20.6 µM [activator, partial curve, poor fit]
Cc1cccc(C(=O)N(CCc2ccccc2)Cc2ccccc2)c1[N+](=O)[O-] | inactive
COc1ccc(-c2noc(N3CCC(C(=O)N(C)c4ccccc4C)CC3)n2)cc1 | inconclusive: 29.1 µM [inhibitor, single point]
CCOC(=O)c1ccc(N2C(=O)C(O)=C(C(C)=O)C2c2ccc([N+](=O)[O-])cc2)cc1 (stereo not drawn) | inactive
